Consider 3 molecules from article PMC7898466.

Amino acid sequences for entries named in this document (tags omitted).
UniProt Q9UI95: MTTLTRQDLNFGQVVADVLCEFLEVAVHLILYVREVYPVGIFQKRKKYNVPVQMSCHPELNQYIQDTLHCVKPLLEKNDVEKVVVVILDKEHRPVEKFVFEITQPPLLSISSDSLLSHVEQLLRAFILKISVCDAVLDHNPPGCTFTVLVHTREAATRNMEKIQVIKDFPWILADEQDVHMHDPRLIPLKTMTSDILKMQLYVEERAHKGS

Experiment [1] has as its target T1, Flag-Polλ (3xFlag human Polλ, full-length ORF) (human) (UniProt Q9UGP5).
T1 sequence: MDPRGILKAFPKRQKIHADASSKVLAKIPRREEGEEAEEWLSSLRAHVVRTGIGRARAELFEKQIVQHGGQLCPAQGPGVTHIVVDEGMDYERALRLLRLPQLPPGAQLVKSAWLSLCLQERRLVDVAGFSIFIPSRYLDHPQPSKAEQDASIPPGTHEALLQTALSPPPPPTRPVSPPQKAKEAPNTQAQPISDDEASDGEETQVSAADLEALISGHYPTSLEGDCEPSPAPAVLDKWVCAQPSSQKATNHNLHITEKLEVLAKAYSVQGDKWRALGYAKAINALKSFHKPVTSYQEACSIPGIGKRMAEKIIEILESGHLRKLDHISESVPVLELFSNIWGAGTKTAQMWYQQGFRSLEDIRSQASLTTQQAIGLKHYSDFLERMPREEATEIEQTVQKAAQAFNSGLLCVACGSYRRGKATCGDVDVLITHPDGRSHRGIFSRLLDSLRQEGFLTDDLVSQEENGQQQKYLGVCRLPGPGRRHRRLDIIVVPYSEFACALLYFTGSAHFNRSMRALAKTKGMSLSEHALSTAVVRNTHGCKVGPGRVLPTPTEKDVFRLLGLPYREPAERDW
Briefly: co-IP; chromatin extracts of GM637 HFs stably expressing Flag-Polλ, with or without UVC (30 J/m^2, 4 h); extracts treated with 1% formalin; FLAG agarose beads overnight at 4°C in IP buffer (150 mM NaCl, Tris-HCl pH 7.5, 1 mM EDTA, 0.05% NP40, 10% glycerol); Western blot with PCNA, Rev7 and Flag antibodies.

For another experiment, the target named is GST-Rev7 (UniProt Q9UI95). In words: pull-down; ~2 μg GST-Rev7 or GST bound to 20 μl glutathione sepharose beads, incubated with an equal amount of Polλ or Polλ-NTD in 50 μl buffer I (50 mM Tris-HCl pH 7.5, 150 mM NaCl, 5 mM DTT, 0.01% NP-40, 10% glycerol); 25°C 15 min, then 4°C overnight; three washes; elution in SDS loading buffer; Coomassie staining; both purified.

Results are given in words; binding and its absence hold for the method and conditions named. For part of these data: Binding seen in cells or lysates may run through a third protein. Some results given as binding are weak or reduced against the parent protein; the word gives no strength. For part of these data: Tags and fused reporters may be left off the sequences shown.

In the case of “Rev7 (endogenous) (from UniProt Q9UI95 1-211)”, the binding entry in experiment [1] is “binds”.

B1: DNA polymerase λ, full-length (residues 1–575) (enzyme, UniProt Q9UGP5 1-575)
chain: T1 sequence
With B1, the binding result in the experiment with GST-Rev7 is recorded as “binds”.

B2: N-terminally truncated Polλ (residues 245–575) (domain or fragment, UniProt Q9UGP5 245-575)
chain: SSQKATNHNLHITEKLEVLAKAYSVQGDKWRALGYAKAINALKSFHKPVTSYQEACSIPGIGKRMAEKIIEILESGHLRKLDHISESVPVLELFSNIWGAGTKTAQMWYQQGFRSLEDIRSQASLTTQQAIGLKHYSDFLERMPREEATEIEQTVQKAAQAFNSGLLCVACGSYRRGKATCGDVDVLITHPDGRSHRGIFSRLLDSLRQEGFLTDDLVSQEENGQQQKYLGVCRLPGPGRRHRRLDIIVVPYSEFACALLYFTGSAHFNRSMRALAKTKGMSLSEHALSTAVVRNTHGCKVGPGRVLPTPTEKDVFRLLGLPYREPAERDW
On to B2, for which the binding entry in the experiment with GST-Rev7 is “binds”.
